Our source for the binding values is article PMC5487319 (Scientific Reports, 2017).

Protein sequences, listed by entry. Tags and fused reporters are not part of them. Residues count along the entry.
UniProt P17948, residues 27-1338: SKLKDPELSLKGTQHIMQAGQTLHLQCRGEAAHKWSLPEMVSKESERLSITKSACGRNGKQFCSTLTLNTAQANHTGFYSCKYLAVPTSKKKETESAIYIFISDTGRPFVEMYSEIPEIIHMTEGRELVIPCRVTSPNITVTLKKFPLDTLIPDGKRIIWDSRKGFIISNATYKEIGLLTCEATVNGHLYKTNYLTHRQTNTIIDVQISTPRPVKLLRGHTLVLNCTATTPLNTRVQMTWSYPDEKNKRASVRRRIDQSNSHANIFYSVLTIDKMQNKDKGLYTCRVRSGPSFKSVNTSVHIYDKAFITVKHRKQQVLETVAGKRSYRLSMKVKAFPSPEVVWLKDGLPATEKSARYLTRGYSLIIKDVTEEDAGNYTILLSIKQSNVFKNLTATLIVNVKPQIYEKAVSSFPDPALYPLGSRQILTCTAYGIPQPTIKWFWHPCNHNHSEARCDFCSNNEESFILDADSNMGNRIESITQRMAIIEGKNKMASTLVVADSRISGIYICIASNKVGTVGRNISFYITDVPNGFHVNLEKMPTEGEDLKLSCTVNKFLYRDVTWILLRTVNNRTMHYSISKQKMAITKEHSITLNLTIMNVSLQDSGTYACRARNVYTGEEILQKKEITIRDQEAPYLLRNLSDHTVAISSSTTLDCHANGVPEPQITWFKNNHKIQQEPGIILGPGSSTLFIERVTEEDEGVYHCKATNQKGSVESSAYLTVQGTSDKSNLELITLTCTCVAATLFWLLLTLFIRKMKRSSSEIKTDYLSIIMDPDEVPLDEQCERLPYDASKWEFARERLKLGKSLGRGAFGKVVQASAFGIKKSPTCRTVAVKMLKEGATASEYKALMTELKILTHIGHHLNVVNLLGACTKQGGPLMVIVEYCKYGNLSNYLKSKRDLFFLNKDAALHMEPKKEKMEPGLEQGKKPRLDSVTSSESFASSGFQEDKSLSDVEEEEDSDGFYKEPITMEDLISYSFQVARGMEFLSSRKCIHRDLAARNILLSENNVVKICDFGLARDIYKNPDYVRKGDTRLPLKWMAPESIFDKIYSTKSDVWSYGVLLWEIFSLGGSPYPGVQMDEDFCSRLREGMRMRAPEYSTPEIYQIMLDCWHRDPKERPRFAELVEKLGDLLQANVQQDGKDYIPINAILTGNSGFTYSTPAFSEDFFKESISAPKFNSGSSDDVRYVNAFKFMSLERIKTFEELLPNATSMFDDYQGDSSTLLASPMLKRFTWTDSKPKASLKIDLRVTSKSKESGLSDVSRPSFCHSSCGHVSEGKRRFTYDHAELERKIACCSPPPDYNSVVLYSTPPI

Results are given in words; binding and its absence hold for the method and conditions named. Binding seen in cells or lysates may run through a third protein. Some binding calls cover weakened binding; strength is not graded here. Sequences can lack the tags named with a protein.

Assay [1] concerns the target T1, GST-….
T1 sequence: RKRKRKKSRYIVLS
In words: co-IP; purified GST-peptide (80 or 185 nmol/L) added to A549 cells for 12 h, cells lysed, 600 ug protein precipitated with anti-GST antibody, blot for VEGFR-1; IgG as negative group; only the target purified.

The target in assay [2] is T2, GST-….
T2 sequence: QKRKRKKSRKKH
The assay is described as above. The source holds these as a separate data set.

Assay [3] has as its target VEGFR-1 (human (endogenous in A549)) (UniProt P17948). In words: co-IP; reversed co-IP: purified GST-peptide (80 or 185 nmol/L) added to A549 cells for 12 h, cells lysed, 600 ug protein precipitated with anti-VEGFR-1 antibody, blot for GST-peptide; IgG as negative group; only the binder purified.

On to “VEGFR-1 (from UniProt P17948 27-1338) (receptor)”, for which the binding result in assay [1] and in assay [2] was “binds” in each case.

B1: QKRKRKKSRKKH (peptide)
peptide: QKRKRKKSRKKH
notes: core motif RKRKKSR kept; also called non-labeled peptide; source: synthetic peptide (ChinaPeptides Co., Ltd., SPPS, HPLC purified)
With B1, the binding entry in assay [3] is given as “binds”.

B2: RKRKRKKSRYIVLS (peptide)
peptide: RKRKRKKSRYIVLS
notes: as for B1
For the molecule B2, the binding result in assay [3] is given as “binds”.
